No constants are given. Whether binding was seen depends on the method and setting. Some binding calls cover weakened binding; strength is not graded here.
Biological target: Ca2+/Calmodulin (CAM)-Dependent Protein Kinase Kinase-2 (CAMKK2) (human (endogenous in HEK293)) (UniProt Q96RR4)
Experiment: native gel or EMSA; two-dimensional BN-PAGE (first dimension, native, pH 7, 1.5% n-dodecyl β-D-maltoside lysis buffer) / SDS-PAGE and immunoblot of lysates of wild-type and CAMKK2-/- HEK293 cells; vertical alignment of the complexes

By UniProt entry, the sequences of proteins in these tests, tags left out.
UniProt Q96RR4: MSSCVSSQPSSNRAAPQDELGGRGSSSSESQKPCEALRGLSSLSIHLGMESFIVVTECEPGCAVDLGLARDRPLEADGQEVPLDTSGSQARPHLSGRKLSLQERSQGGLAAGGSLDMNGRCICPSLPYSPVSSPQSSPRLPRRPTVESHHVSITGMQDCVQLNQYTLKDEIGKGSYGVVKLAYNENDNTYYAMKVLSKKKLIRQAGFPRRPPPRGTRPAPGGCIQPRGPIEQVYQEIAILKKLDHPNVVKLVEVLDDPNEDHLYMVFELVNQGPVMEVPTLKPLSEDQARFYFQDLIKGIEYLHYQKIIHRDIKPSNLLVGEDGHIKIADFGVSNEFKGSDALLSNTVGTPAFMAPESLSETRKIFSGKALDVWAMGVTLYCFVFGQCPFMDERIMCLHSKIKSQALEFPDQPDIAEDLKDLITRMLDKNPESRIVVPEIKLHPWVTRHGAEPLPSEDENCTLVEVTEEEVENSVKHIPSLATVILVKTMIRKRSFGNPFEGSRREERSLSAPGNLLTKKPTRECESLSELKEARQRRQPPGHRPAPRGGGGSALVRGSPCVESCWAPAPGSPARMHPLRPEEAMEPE

B1: Ca2+/CAM Dependent Protein Kinase IV (CAMK4) (enzyme, UniProt Q16566 1-473)
chain: MLKVTVPSCSASSCSSVTASAAPGTASLVPDYWIDGSNRDALSDFFEVESELGRGATSIVYRCKQKGTQKPYALKVLKKTVDKKIVRTEIGVLLRLSHPNIIKLKEIFETPTEISLVLELVTGGELFDRIVEKGYYSERDAADAVKQILEAVAYLHENGIVHRDLKPENLLYATPAPDAPLKIADFGLSKIVEHQVLMKTVCGTPGYCAPEILRGCAYGPEVDMWSVGIITYILLCGFEPFYDERGDQFMFRRILNCEYYFISPWWDEVSLNAKDLVRKLIVLDPKKRLTTFQALQHPWVTGKAANFVHMDTAQKKLQEFNARRKLKAAVKAVVASSRLGSASSSHGSIQESHKASRDPSPIQDGNEDMKAIPEGEKIQGDGAQAAVKGAQAELMKVQALEKVKGADINAEEAPKMVPKAVEDGIKVADLELEEGLAEEKLKTVEEAAAPREGQGSSAVGFEVPQQDVILPEY
binding: binds

Reference: paper PMC7251913
